Reference: patent US12551173B2, “System and method for single-scan rest-stress cardiac PET” (The General Hospital Corporation, priority 2012, dated 2026)

Test system: myocardium
Assay: MBF estimated with kinetic modeling in phase II clinical 18F-Flurpiridaz rest and stress PET studies
Type: in vivo, human
Details: stress versus rest
Text: With respect to ^18F-flurpiridaz patient studies, MBF was estimated with kinetic modeling analysis in a group of subjects in phase II clinical trial of ^18F-Flurpiridaz. […] During the rest study, there was no significant difference in MBF (t-test, α=0.05) between the healthy and ischemic myocardium. […] The MBF measured with kinetic modeling for ^18F-Flurpiridaz are consistent with the previously reported MBF measured with other tracers.

Compound: CC(C)(C)n1ncc(OCc2ccc(COCCF)cc2)c(Cl)c1=O [18F-Flurpiridaz]
- MBF increase during pharmacological stress (healthy myocardium): more than 3 ×
- MBF change during pharmacological stress (ischemic regions): remained approximately the same
